Taken from: PubChem BioAssay AID1259425 (University of Nebraska Medical Center, 2018)
Here is a random part of about 14,000 reagents tested. Further read-outs or replicates are left out here. Not given: the time to read-out.

- Screen: 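Compare each knockdown with KSR1 silencing using changes in marker transcripts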 (primary screen)
- Cells: HCT116 human colon cancer cells
- Reagent: siRNA pool against human genes, 50 nM siRNA
- Detection: 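mRNA of six signature genes measured together by branched-DNA assay after 50 nM siRNA pool, blank removed, divided by geometric mean of two housekeeping genes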
- Reading the numbers: BNIP3L mRNA: higher = more BNIP3L transcript after knockdown

Against LSS (GeneID 4047) the deposit lists BNIP3L mRNA, set 1 = 0.142. With knock-down of ZNF28 (GeneID 7576), the record shows BNIP3L mRNA, set 1 = 0.174. Knock-down of GAS6 (GeneID 2621) came out at: BNIP3L mRNA, set 1 = 0.159. Depletion of LPA (GeneID 4018) resulted in: BNIP3L mRNA, set 1 = 0.18. Against ABHD2 (GeneID 11057) the deposit lists BNIP3L mRNA, set 1 = 0.134. IMPDH2 (GeneID 3615) showed BNIP3L mRNA, set 1 = 0.0813.

Silencing of SEMA4C (GeneID 54910) came out at: BNIP3L mRNA, set 1 = 0.096. After knock-down of SLC39A6 (GeneID 25800) the results were BNIP3L mRNA, set 1 = 0.118. RMI1 (GeneID 80010) showed BNIP3L mRNA, set 1 = 0.158. Silencing of FUCA2 (GeneID 2519) gave: BNIP3L mRNA, set 1 = 0.102. Against NCAN (GeneID 1463) the deposit lists BNIP3L mRNA, set 1 = 0.111. With knock-down of KRTAP1-3 (GeneID 81850), the screen gave BNIP3L mRNA, set 1 = 0.248.

Silencing of BAGE (GeneID 574) gave: BNIP3L mRNA, set 1 = 0.0898. Silencing of SLC25A18 (GeneID 83733) came out at: BNIP3L mRNA, set 1 = 0.126. Knock-down of UPK1A (GeneID 11045) resulted in: BNIP3L mRNA, set 1 = 0.109. Against GALNT12 (GeneID 79695), the values are BNIP3L mRNA, set 1 = 0.172. YRDC (GeneID 79693) scored BNIP3L mRNA, set 1 = 0.14. For NET1 (GeneID 10276), the entry reads BNIP3L mRNA, set 1 = 0.137.

TRAPPC12 (GeneID 51112) gave BNIP3L mRNA, set 1 = 0.254. For PAQR5 (GeneID 54852) the deposit lists BNIP3L mRNA, set 1 = 0.143. Against KIF27 (GeneID 55582), the entry reads BNIP3L mRNA, set 1 = 0.08. With knock-down of IMPG1 (GeneID 3617), the record shows BNIP3L mRNA, set 1 = 0.12. Silencing of ETV4 (GeneID 2118) gave: BNIP3L mRNA, set 1 = 0.296. Knock-down of TNRC6B (GeneID 23112) gave: BNIP3L mRNA, set 1 = 0.0552.

After knock-down of KIF13A (GeneID 63971), the record shows BNIP3L mRNA, set 1 = 0.0524. Knock-down of EMC6 (GeneID 83460) gave: BNIP3L mRNA, set 1 = 0.247. With knock-down of BARHL1 (GeneID 56751) the results were BNIP3L mRNA, set 1 = 0.143. DMD (GeneID 1756) scored BNIP3L mRNA, set 1 = 0.0718.

2 successive records from above, quoted:
SEMA4C (GeneID 54910) → BNIP3L mRNA, set 1 = 0.096
SLC39A6 (GeneID 25800) → BNIP3L mRNA, set 1 = 0.118
